Reference: article PMC11200093
These are yes or no findings as the source states them, for the method shown. Binding seen in cells or lysates may run through a third protein. Some binding calls cover weakened binding; strength is not graded here.

Protein sequences, listed by entry. Tags and fused reporters are not part of them.
UniProt Q13330: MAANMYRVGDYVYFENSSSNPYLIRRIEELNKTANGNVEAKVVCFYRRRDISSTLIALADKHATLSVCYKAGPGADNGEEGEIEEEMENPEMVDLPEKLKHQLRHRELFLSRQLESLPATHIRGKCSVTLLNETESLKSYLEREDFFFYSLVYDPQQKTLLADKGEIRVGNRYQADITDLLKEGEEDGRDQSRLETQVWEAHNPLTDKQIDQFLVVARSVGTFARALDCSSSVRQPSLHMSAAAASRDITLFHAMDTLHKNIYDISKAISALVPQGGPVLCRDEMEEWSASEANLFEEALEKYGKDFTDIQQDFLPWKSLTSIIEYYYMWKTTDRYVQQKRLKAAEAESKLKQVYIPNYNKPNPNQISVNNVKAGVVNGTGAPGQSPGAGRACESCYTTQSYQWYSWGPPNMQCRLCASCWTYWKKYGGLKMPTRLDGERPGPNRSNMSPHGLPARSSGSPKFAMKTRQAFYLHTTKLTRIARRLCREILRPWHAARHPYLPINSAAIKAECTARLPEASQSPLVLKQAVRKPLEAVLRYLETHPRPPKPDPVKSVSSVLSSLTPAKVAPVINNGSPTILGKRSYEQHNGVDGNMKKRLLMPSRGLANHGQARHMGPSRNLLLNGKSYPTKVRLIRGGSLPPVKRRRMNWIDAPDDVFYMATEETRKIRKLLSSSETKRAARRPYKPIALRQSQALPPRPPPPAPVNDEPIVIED
UniProt Q92769: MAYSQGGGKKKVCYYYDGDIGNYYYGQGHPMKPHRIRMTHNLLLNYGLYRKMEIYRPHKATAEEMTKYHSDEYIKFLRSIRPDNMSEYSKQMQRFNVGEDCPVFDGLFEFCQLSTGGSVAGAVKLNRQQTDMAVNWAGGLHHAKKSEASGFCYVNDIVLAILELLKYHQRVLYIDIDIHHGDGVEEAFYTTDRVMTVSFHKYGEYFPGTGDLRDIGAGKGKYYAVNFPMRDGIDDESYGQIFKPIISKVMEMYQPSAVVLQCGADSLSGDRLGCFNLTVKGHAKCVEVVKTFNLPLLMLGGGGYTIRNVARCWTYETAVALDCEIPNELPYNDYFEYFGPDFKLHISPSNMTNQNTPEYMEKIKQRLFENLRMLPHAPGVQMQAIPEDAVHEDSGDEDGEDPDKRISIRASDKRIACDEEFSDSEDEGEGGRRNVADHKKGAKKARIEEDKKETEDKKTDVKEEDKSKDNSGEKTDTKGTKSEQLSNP
UniProt Q13547: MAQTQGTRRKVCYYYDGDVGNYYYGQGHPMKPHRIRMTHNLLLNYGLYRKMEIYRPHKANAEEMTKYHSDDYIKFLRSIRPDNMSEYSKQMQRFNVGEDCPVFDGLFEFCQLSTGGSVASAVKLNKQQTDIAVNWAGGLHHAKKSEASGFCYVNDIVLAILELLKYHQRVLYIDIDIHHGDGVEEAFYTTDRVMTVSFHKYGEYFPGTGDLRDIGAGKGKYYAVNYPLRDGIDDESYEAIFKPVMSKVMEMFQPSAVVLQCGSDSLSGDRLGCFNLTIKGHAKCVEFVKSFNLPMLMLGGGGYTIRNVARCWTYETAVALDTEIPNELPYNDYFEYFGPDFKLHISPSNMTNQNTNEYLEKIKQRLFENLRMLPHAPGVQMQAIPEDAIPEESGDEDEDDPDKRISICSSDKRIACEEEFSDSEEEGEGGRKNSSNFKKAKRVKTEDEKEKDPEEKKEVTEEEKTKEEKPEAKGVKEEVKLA

Target: metastasis associated 1 (MTA1) (human) (UniProt Q13330)
Assay: co-IP; co-immunoprecipitation of MTA1, HDAC1 and HDAC2 (Figure S4D); cells, bait and antibody not told in the main text

For “HDAC2 (from UniProt Q92769 1-488) (enzyme)”, the binding was “binds”.

For “histone deacetylase 1 (HDAC1) (from UniProt Q13547 1-482) (enzyme)”, the binding was “binds”.
